Reference: publication PMC7862700
This is a selection; strong and weak results do not stand in their true shares. At the low end of the ranking the order means little.

By UniProt entry, the sequences of proteins in these tests, tags left out. Where a name states a change or a piece, a line headed by the entry shows the natural chain unless it says otherwise.
UniProt O43186: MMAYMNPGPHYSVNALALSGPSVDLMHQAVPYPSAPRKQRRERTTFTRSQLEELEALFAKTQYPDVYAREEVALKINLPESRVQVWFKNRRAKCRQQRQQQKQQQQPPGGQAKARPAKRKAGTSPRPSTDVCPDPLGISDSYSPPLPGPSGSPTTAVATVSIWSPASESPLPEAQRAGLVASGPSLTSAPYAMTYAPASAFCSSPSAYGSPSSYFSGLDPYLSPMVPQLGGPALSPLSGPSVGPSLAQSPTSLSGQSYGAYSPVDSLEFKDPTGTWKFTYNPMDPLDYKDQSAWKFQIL

What follows are sequences tested against CRX (UniProt O43186) (assay: DAPPL (digital affinity profiling via proximity ligation, sequencing)). Settings: 10 mM Tris-HCl pH 7.5, 50 mM NaCl, 1 mM DTT, 4% glycerol, room temperature, 30 min; GST-TFs on glutathione beads, 16-mer random dsDNA library, 0.1% …; high values mean tight binding; double strand, one strand shown; scale: fold enrichment (6-mer frequency, TF over GST control).

| Sequence | binding signal |
| --- | --- |
| GAAAAA | 0.945 |
| ACTTGC | 1.12 |
| TACACT | 1.35 |
| CACGCG | 0.979 |
| AACCTG | 1.1 |
| ACACTG | 0.849 |
| AATTTC | 1.49 |
| GTCCTG | 0.822 |
| AACCCC | 1.21 |
| TGTCTG | 0.866 |
| ACTATA | 1.4 |
| CTACGG | 1.08 |
| AACACG | 0.928 |
| ACGACG | 0.891 |
| ACACCA | 0.78 |
| ACCCCC | 0.985 |
| TTAAAT | 2.92 |
| TTCATG | 1.16 |
| CTATGT | 0.924 |
| ACAACA | 0.974 |

| Sequence | binding signal |
| --- | --- |
| CCAAAT | 1.18 |
| CAGGAA | 0.724 |
| GCGTCC | 0.78 |
| GAAACT | 0.984 |
| ATATCC | 1.58 |
| AAGCAA | 0.978 |
| TACCGG | 0.924 |
| TACCTG | 1.11 |
| TCCGCA | 1.35 |
| TGGTCC | 0.855 |
| GAAGTC | 0.53 |
| ACTGCC | 0.974 |
| AACTTG | 0.977 |
| TGAATG | 0.999 |
| TGTCAC | 0.84 |
| CTGCGG | 0.835 |
| CCGCTG | 0.876 |
| CATTCG | 1.14 |
| CAATTC | 1.07 |

Copied from above for reference:

| Sequence | binding signal |
| --- | --- |
| GAAACT | 0.984 |
| ATATCC | 1.58 |
